Data as given in PubChem BioAssay AID652243 (Drosophila RNAi Screening Center, 2013).
The screen tested about 24,000 reagents; this is an unselected part of those that have a named target and a result. Over the whole deposit, 246 (1%) were called active. 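Plates not normalised; calls are printed but the firefly/Renilla ratio behind them is not deposited; fold cut for lowering reported inconsistently.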 Raw values vary from plate to plate and are shown uncorrected. Names joined by + are all predicted targets of the reagent. Not given: the amount of reagent.

- Assay: 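Fly genes required for human androgen receptor driven transcription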 (primary screen)
- System: Drosophila S2R+ cells
- Knock-down reagent: long dsRNA against Drosophila genes
- Time to read-out: 72 h (48 h, then 24 h hormone)
- Conditions: synthetic androgen R1881 at 10 nM for 24 h
- Read-out: 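Per-well raw luminescence of the androgen-driven firefly reporter and of the Renilla control, two replicates each, without normalisation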
- Reading the numbers: firefly reporter light: higher = more light from androgen-responsive reporter; Renilla control light: higher = more constitutive control signal (cell number, transfection)
- Active means: 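Hit when the log firefly-to-Renilla ratio dropped or increased by a fixed fold versus the mean of GFP or LacZ controls across duplicate plates; lowering cut given as 1.5 and as 3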
- Meaning of the calls: active = hit: reporter lowered or raised; inactive = no hit

target | amplicon | firefly reporter light, replicate 1 | firefly reporter light, replicate 2 | Renilla control light, replicate 1 | Renilla control light, replicate 2 | outcome
Sclp | DRSC19851 | 1.13e5 | 88914 | 1.02e6 | 7.97e5 | inactive
CG32548 | DRSC19627 | 4.31e5 | 3.76e5 | 3.15e6 | 3.08e6 | inactive
CG32548 | DRSC19982 | 65492 | 56930 | 5.02e5 | 5.56e5 | inactive
CG32548 | DRSC28857 | 4.73e5 | 4.53e5 | 1.65e6 | 1.44e6 | inactive
lncRNA:CR31526 (long non-coding RNA:CR31526) | DRSC21520 | 9.02e5 | 6.88e5 | 8.28e5 | 6.84e5 | inactive
lncRNA:CR31526 (long non-coding RNA:CR31526) | DRSC26871 | 6.61e5 | 4.21e5 | 1.24e6 | 6.48e5 | inactive
lncRNA:CR31526 (long non-coding RNA:CR31526) | DRSC39088 | 7.33e5 | 5.29e5 | 1.89e6 | 1.92e6 | inactive
CG15890 | DRSC19737 | 4.66e5 | 5.10e5 | 3.12e6 | 3.09e6 | inactive
Sems (Seminase) | DRSC11626 | 3.80e5 | 2.43e5 | 3.69e6 | 2.42e6 | inactive
Sems (Seminase) | DRSC25887 | 5.46e5 | 4.97e5 | 1.26e6 | 1.12e6 | inactive
Fs(2)Ket (Female sterile (2) Ketel) | DRSC03328 | 1.41e5 | 2.27e5 | 6.65e5 | 7.97e5 | inactive
Fs(2)Ket (Female sterile (2) Ketel) | DRSC23439 | 1.54e5 | 2.21e5 | 2.90e5 | 3.22e5 | inactive
CG8191 + CG12379 | DRSC19451 | 9.77e5 | 7.31e5 | 4.09e6 | 2.56e6 | inactive
CG31908 | DRSC23243 | 1.05e6 | 1.41e6 | 2.09e6 | 2.37e6 | inactive
CG43397 + CG12902 | DRSC06217 | 4.13e5 | 2.97e5 | 1.96e6 | 2.10e6 | inactive
atms (antimeros) | DRSC12310 | 30045 | 46656 | 3.62e5 | 2.85e5 | inactive
atms (antimeros) | DRSC27502 | 2.39e5 | 2.31e5 | 3.12e5 | 5.64e5 | inactive
CG3280 (retired record) | DRSC10356 | 2.94e5 | 2.02e5 | 2.26e6 | 1.93e6 | inactive
CG15126 | DRSC06548 | 1.19e5 | 1.95e5 | 2.41e6 | 1.44e6 | inactive
cer (crammer) | DRSC05992 | 1.01e5 | 1.89e5 | 2.00e6 | 2.45e6 | inactive
MED26 (Mediator complex subunit 26) | DRSC17126 | 1.06e6 | 1.14e6 | 1.20e6 | 8.70e5 | inactive
MED26 (Mediator complex subunit 26) | DRSC17147 | 5.07e5 | 3.62e5 | 2.71e6 | 1.88e6 | inactive
MED26 (Mediator complex subunit 26) | DRSC17148 | 1.93e5 | 1.33e5 | 3.23e5 | 2.56e5 | inactive
TwdlM (TweedleM) | DRSC15810 | 3.24e5 | 2.57e5 | 2.53e6 | 2.55e6 | inactive

Records above whose target name begins with M or m (3):
target | amplicon | firefly reporter light, replicate 1 | firefly reporter light, replicate 2 | Renilla control light, replicate 1 | Renilla control light, replicate 2 | outcome
MED26 (Mediator complex subunit 26) | DRSC17126 | 1.06e6 | 1.14e6 | 1.20e6 | 8.70e5 | inactive
MED26 (Mediator complex subunit 26) | DRSC17147 | 5.07e5 | 3.62e5 | 2.71e6 | 1.88e6 | inactive
MED26 (Mediator complex subunit 26) | DRSC17148 | 1.93e5 | 1.33e5 | 3.23e5 | 2.56e5 | inactive

The results go on.
target | amplicon | firefly reporter light, replicate 1 | firefly reporter light, replicate 2 | Renilla control light, replicate 1 | Renilla control light, replicate 2 | outcome
CG13101 | DRSC02201 | 1.14e6 | 9.99e5 | 2.88e6 | 1.96e6 | inactive
CG31523 | DRSC12009 | 1.88e5 | 2.32e5 | 1.70e5 | 1.83e5 | inactive
CG31523 | DRSC12337 | 8.47e5 | 8.62e5 | 1.59e6 | 1.39e6 | inactive
CG31523 | DRSC27253 | 3.02e5 | 2.63e5 | 5.43e5 | 6.26e5 | inactive
CG3862 | DRSC00631 | 6.78e5 | 6.30e5 | 2.74e6 | 2.37e6 | inactive
CG3862 | DRSC28505 | 3.85e5 | 6.20e5 | 5.65e5 | 8.67e5 | inactive
Shab (Shaker cognate b) | DRSC08013 | 1.98e5 | 1.97e5 | 6.38e5 | 6.36e5 | inactive
Shab (Shaker cognate b) | DRSC08643 | 1.14e5 | 1.50e5 | 1.19e6 | 1.16e6 | inactive
Shab (Shaker cognate b) | DRSC08699 | 9.94e5 | 9.49e5 | 1.83e6 | 2.07e6 | inactive
Shab (Shaker cognate b) | DRSC28359 | 8.72e5 | 1.13e6 | 6.07e5 | 1.06e6 | inactive
Nubp2 (NUBP iron-sulfur cluster assembly factor 2) | DRSC11758 | 2.74e5 | 2.07e5 | 1.92e6 | 2.14e6 | inactive
gwl (greatwall) | DRSC16305 | 51182 | 36348 | 3.32e5 | 3.66e5 | inactive
gwl (greatwall) | DRSC36638 | – | – | – | – | inactive
gwl (greatwall) | DRSC36639 | – | – | – | – | inactive
Blos1 | DRSC05970 | 42093 | 67433 | 1.13e6 | 1.13e6 | inactive
CG12402 | DRSC14508 | 1.44e5 | 1.27e5 | 1.98e6 | 2.32e6 | inactive
CG12402 | DRSC26872 | 3.40e5 | 4.21e5 | 8.62e5 | 8.65e5 | inactive
ND-39 (NADH dehydrogenase (ubiquinone) 39 kDa subunit) | DRSC11791 | 54912 | 41919 | 3.20e5 | 3.57e5 | inactive
ND-39 (NADH dehydrogenase (ubiquinone) 39 kDa subunit) | DRSC28392 | 3.62e5 | 7.25e5 | 1.27e6 | 1.48e6 | inactive
GstE8 (Glutathione S transferase E8) | DRSC06678 | 8.21e5 | 1.03e6 | 2.02e6 | 1.99e6 | inactive
Ror | DRSC03414 | 2.33e5 | 2.94e5 | 1.55e6 | 2.39e6 | inactive
Ror | DRSC36669 | – | – | – | – | inactive
Ror | DRSC36670 | – | – | – | – | inactive
CG12010 | DRSC08218 | 95100 | 69888 | 6.50e5 | 9.72e5 | inactive
CG10681 | DRSC09777 | 9.05e5 | 7.21e5 | 8.55e5 | 1.45e6 | inactive
CG10681 | DRSC21484 | 8.89e5 | 6.96e5 | 3.08e6 | 2.44e6 | inactive
CG10681 | DRSC27329 | 2.61e5 | 3.02e5 | 6.07e5 | 7.43e5 | inactive
Mi-2 + Su(Tpl) | DRSC09640 | 1.56e5 | 1.64e5 | 5.05e5 | 4.86e5 | inactive
alpha-Man-Ia (alpha-Mannosidase class I a) | DRSC17642 | 80820 | 1.64e5 | 2.35e5 | 4.92e5 | active
alpha-Man-Ia (alpha-Mannosidase class I a) | DRSC18162 | 2.77e5 | 3.20e5 | 3.34e6 | 2.79e6 | inactive
alpha-Man-Ia (alpha-Mannosidase class I a) | DRSC18163 | 1.36e5 | 1.27e5 | 2.34e6 | 2.53e6 | inactive
alpha-Man-Ia (alpha-Mannosidase class I a) | DRSC18735 | 1.50e5 | 1.52e5 | 1.75e6 | 1.55e6 | inactive
alpha-Man-Ia (alpha-Mannosidase class I a) | DRSC23100 | 7.31e5 | 1.01e6 | 1.42e6 | 2.43e6 | inactive
Ugt49B1 (UDP-glycosyltransferase family 49 member B1) | DRSC04461 | 3.00e5 | 2.73e5 | 1.80e6 | 1.70e6 | inactive
Ugt49B1 (UDP-glycosyltransferase family 49 member B1) | DRSC26568 | 3.32e5 | 2.58e5 | 8.45e5 | 8.14e5 | inactive
